Source: publication PMC8092270
Results are given in words; binding and its absence hold for the method and conditions named. For some of these results: Binding can be weak; no strength is given.

Assays:
[1] = molecular target: T1, C1 inhibitor serpin domain (residues 98 to 500) (human) (UniProt P05155); assay: condition: C1-INH (20 mM) and Vag8 WT or mutant (10 mM); SEC; 100-ul mixture of C1-INH (20 mM) and Vag8 WT or mutant (10 mM), room temperature, S200 Increase 10/300GL, 50 mM Tris-HCl-150 mM NaCl, pH 8.0, 0.4 ml/min; fractions on SDS-PAGE; both purified
T1 sequence: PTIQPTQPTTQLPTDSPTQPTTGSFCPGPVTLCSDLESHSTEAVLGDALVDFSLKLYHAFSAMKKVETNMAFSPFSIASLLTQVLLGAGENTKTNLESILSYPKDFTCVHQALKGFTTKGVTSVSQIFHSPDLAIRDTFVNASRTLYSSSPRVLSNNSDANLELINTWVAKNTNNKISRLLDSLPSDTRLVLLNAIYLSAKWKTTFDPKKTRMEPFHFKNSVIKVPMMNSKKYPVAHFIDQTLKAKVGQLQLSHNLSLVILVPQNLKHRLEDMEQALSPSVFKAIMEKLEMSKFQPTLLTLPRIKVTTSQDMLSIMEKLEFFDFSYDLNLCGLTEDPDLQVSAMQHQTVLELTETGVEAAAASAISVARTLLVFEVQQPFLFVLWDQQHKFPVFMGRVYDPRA

[2] = molecular target: T1, C1 inhibitor serpin domain (residues 98 to 500) (human); assay: SEC; 100-ul mixture of C1-INH (20 mM) and Vag8 WT or mutant (10 mM), room temperature, S200 Increase 10/300GL, 50 mM Tris-HCl-150 mM NaCl, pH 8.0, 0.4 ml/min; fractions on SDS-PAGE; both purified
[3] = molecular target: T1, C1 inhibitor serpin domain (residues 98 to 500) (human); assay: cryo-EM structure; single-particle cryo-EM of the purified Vag8-C1-INH complex (0.5 mg/ml), Titan Krios 300 kV, 3.6 A; both purified

| Substance | binding [1] | binding [2] | binding [3] |
| --- | --- | --- | --- |
| Vag8 passenger domain A231R (Bordetella pertussis) (domain or fragment) | no binding |  |  |
| Vag8 passenger domain W285A (Bordetella pertussis) (domain or fragment) |  | binds |  |
| Vag8 passenger domain E237A (Bordetella pertussis) (domain or fragment) |  | binds |  |
| Vag8 passenger domain H209A (Bordetella pertussis) (domain or fragment) |  | binds |  |
| Vag8 passenger domain Y234A (Bordetella pertussis) (domain or fragment) |  | binds |  |
| Vag8 passenger domain (residues 40 to 610) (Bordetella pertussis) (domain or fragment) |  | binds | binds |
